Broadly, the inhibition is the relative decrease from the control value, in per cent.

Amino acid sequences for entries named in this document (tags omitted). A change or cut given only in a name is not applied to a line headed by its entry.
UniProt P43351: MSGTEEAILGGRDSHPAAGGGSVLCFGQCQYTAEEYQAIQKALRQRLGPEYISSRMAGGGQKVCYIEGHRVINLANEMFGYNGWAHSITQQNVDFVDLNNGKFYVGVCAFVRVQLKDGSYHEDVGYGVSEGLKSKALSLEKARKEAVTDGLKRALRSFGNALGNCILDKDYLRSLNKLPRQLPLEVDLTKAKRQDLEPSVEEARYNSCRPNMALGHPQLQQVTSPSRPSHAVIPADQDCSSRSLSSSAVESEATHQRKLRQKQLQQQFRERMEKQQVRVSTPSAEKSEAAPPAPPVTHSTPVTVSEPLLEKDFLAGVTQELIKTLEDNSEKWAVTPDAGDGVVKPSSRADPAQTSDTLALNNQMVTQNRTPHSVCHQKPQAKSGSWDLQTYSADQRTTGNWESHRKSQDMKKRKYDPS

The structures appear in SMILES notation. Values joined by “and” are separate entries in the source; they are usually repeats but may differ in a detail not shown here. Equal entries are not always repeated. Among all 1,900 compounds or so, about 15 (0.8%) were called active.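 Rule for the calls: active = every replicate shows at least 50% inhibition; inconclusive = mean inhibition at least 50% but some replicate below; inactive = the rest.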 The list shows a part of the results.

The assay deals with DNA repair protein RAD52 homolog (Homo sapiens) (UniProt P43351). Put plainly: RAD52 ssDNA annealing inhibitors, primary screen, biochemical, FRET, single point (AID 651660).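 Note: 0% = median of neutral control wells and 100% = median of positive control wells.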 As to conditions: Recombinant RAD52 ssDNA annealing, FRET fluorescence, 30 min; at 18.7 µM; stronger effect = higher value.
As to `C#C[C@]1(O)CC[C@H]2[C@@H]3CCC4=CC(=O)CC[C@@H]4[C@H]3CC[C@@]21CC`, the inhibition is inactive: -2.68%.

As to `O=c1[nH]c(Cc2ccccc2)nc2c1oc1ccccc12`, the inhibition is inactive: -1.73%.

Consider `COc1cc2nc(-c3ccccc3)nc(N3CCCC3)c2cc1OC`, for which the inhibition is inactive: 6.11%.

In the case of `O=C(NO)c1ccccc1O`, the inhibition is inactive: -6.23%.

Regarding `CC(C)C[C@H]1C(=O)N2CCC[C@H]2[C@]2(O)O[C@](NC(=O)[C@@H]3C=C4c5cccc6[nH]c(Br)c(c56)CC4N(C)C3)(C(C)C)C(=O)N12` (stereo partly drawn), the inhibition was inactive: 9.18%.

Take `CC(=O)OCC(=O)[C@@]1(OC(C)=O)[C@@H](C)C[C@H]2[C@@H]3C[C@H](F)C4=CC(=O)C=C[C@]4(C)[C@@]3(F)[C@@H](O)C[C@@]21C`: the inhibition is inactive: 3.77%.

Turning to `CC(N=C(NC#N)Nc1ccncc1)C(C)(C)C` (stereo not drawn), the inhibition was inactive: -2.86%.

Consider `S=C(NCc1ccccc1)NCc1cccc(CNC(=S)NCc2ccccc2)c1`, for which the inhibition was inactive: 1.07%.

`COc1ccc(CN(C)CCc2ccccn2)cc1OC`: the inhibition was inactive: -2.45%.

Take `Oc1[nH]c2ccccc2c1N=Nc1ccccc1`: the inhibition is inactive: -19.7%.

Regarding `C=CCn1c(N2CCCCCC2)nc2c1c(=O)n(C)c(=O)n2C`, the inhibition was inactive: -1.01%.

For the molecule `COc1ccc(O)c(N)c1`, the inhibition was inactive: -44.6%.

Turning to `COc1ccc(C(=O)NCc2cccnc2)cc1`, the inhibition was inactive: -9.74%.

On to `COc1cc2c3c(c1)C(C)CC(C)(C)N3C(=O)C2=O` (stereo not drawn), for which the inhibition is inactive: 1.43%.

Consider `S=C(c1ccc2c(c1)OCO2)N1CCCCC1`, for which the inhibition is inactive: -4.41%.

With `CC(=O)Nc1ccccc1O`, the inhibition is inactive: -6.34%.

As to `O=c1cc(Cn2ccnc2)c2cc3c(cc2o1)CCC3`, the inhibition is inactive: -1.32%.

Regarding `CCOC(=O)c1cnc2ccc(C(=O)OC)cc2c1Nc1ccc2c(c1)OCCO2`, the inhibition is inactive: 0.862%.

Regarding `O=c1oc2c(CN3CCN(CCO)CC3)c(O)ccc2cc1-c1ccccn1`, the inhibition was inactive: -38.1%.

In the case of `c1ccc(CN(CC2=NCCN2)c2ccccc2)cc1`, the inhibition is inactive: -3% and inactive: 4.73%.

On to `Cc1cccc(NC(=O)c2cc3ccccc3o2)c1`, for which the inhibition is inactive: 2.23%.

Turning to `O=C(NCCN1CCN(c2ccccc2)CC1)c1cccc(Br)c1`, the inhibition was inactive: 2.9%.

On to `CC(C)CN1CCN(Cc2ccc3ncccc3c2)CC1CCO` (stereo not drawn), for which the inhibition is inactive: 2.42%.

Take `CCOc1ccc(CCn2c(-c3ccco3)nc3ccccc3c2=O)cc1OCC`: the inhibition is inactive: -6.6%.

Take `COc1ccc(/C=C2\CCn3c2nc2cc(C(=O)O)ccc2c3=O)cc1OC`: the inhibition was inactive: -4.24%.

Turning to `COc1ccc(S(=O)(=O)N2CCN(C(=O)COc3ccc4c(C)cc(=O)oc4c3)CC2)cc1`, the inhibition was inactive: -4%.

With `COc1cc(/C=C/C(=O)N2CCCC2)cc(OC)c1OC`, the inhibition is inactive: -3.32%.

For `COc1cc2cc(C)nc(Cc3cccc4ccccc34)c2cc1OC`, the inhibition was inactive: 23.2%.

`CC(=O)C1=C(O)C(=O)N(Cc2cccnc2)C1c1ccc(C(C)C)cc1` (stereo not drawn): the inhibition was inactive: 0.222%.

Take `CCN(CC)CCNC(=O)c1ccc(N)cc1`: the inhibition is inactive: 5.09%.

With `C[N+](C)(C)CCCC(=O)c1ccc2c(c1)OCO2`, the inhibition is inactive: -9.63%.

As to `OC[C@@H](O)[C@@H](O[C@H]1O[C@H](CO)[C@@H](O)[C@H](O)[C@H]1O)[C@H](O)[C@@H](O)CO`, the inhibition is inactive: 2.34%.

Take `COC(=O)c1ccccc1OCCOCCOc1cccc2ccc(C)nc12`: the inhibition is inactive: -4.32%.

As to `O=C(CCCN1C(=O)/C(=C\c2cccc(Br)c2)SC1=S)Nc1cccnc1`, the inhibition was inactive: -2.49%.

For `COCC(C)NC(=O)c1ccc(CN2CCc3ccccc3C2)cc1` (stereo not drawn), the inhibition was inactive: -0.269%.

`C[C@@H]1CCC[C@H](C)N1NC(=O)c1ccc(Cl)c(S(N)(=O)=O)c1`: the inhibition was inactive: -0.341%.

Regarding `CC(C)C(CCN1C(=O)CCC1=O)C1CCOC(C)(C)C1` (stereo not drawn), the inhibition was inactive: 3.26%.

As for `Cc1ccc2[nH]c3c(=O)n(CCCN4CCN(C)CC4)cnc3c2c1`, the inhibition is inactive: -15.8%.

Regarding `COc1ccc(C(=O)[C@H]2[C@H]3C(=O)N(c4ccccc4)C(=O)[C@H]3C3C=CC=NN32)cc1` (stereo partly drawn), the inhibition is inactive: -45.1%.

For `CC(C)[C@H](NC(=O)[C@@H]1CSCN1C(=O)OC(C)(C)C)C(=O)NCC1CCC(C(=O)O)CC1` (stereo partly drawn), the inhibition is inactive: -15.1%.

As for `Cc1ccc2c(c1)c1c3n2CCCN(Cc2ccccc2)C3CCC1` (stereo not drawn), the inhibition was inactive: 3.99%.

For the molecule `CCc1c(C)c2ccc(OCC(=O)OC(C)C)c(C)c2oc1=O`, the inhibition is inactive: -3.63%.

With `COc1ccc(C2OC(=O)Cc3cc(OC)c(OC)cc32)cc1` (stereo not drawn), the inhibition was inactive: 4.68%.

Regarding `Cc1ccc(C(=O)Nc2ccc(O)cc2C(=O)O)cc1C`, the inhibition is inactive: -17%.

For the molecule `CCc1cc(/C(Cc2ccccn2)=N\O)c(O)cc1O`, the inhibition is inactive: -33.7%.

As for `CCc1cc(-c2[nH]ncc2-c2ccc3c(c2)OCO3)c(O)cc1O`, the inhibition was inactive: -4.46%.

In the case of `CC(/C=C1\SC(=O)N(CCCC(=O)O)C1=O)=C\c1ccccc1`, the inhibition was inactive: -7.27%.

Turning to `O=C(O)c1ccc(N2C(=O)/C(=C\c3ccccc3)N=C2c2ccccc2)cc1`, the inhibition was inactive: -4.94%.

As to `COC(=O)c1ccc(CC(=O)c2ccc(O)cc2O)o1`, the inhibition was inactive: -113%.

Consider `CO[C@H]1C=CO[C@@]2(C)Oc3c(C)c(O)c4c(O)c(c(C=NN5CCN(C)CC5)c(O)c4c3C2=O)NC(=O)C(C)=CC=C[C@H](C)[C@H](O)[C@@H](C)[C@@H](O)[C@@H](C)[C@H](OC(C)=O)[C@@H]1C`, for which the inhibition is inactive: -34.4%.

As to `CC(=O)Nc1nnc(S(N)(=O)=O)s1`, the inhibition was inactive: -5.46%.

Consider `CC(C)Oc1ccc2c(=O)c(-c3ccccc3)coc2c1`, for which the inhibition is inactive: 4.85%.

With `COc1cc2[nH]c3c(=O)n(CCN4CCOCC4)cnc3c2cc1OC`, the inhibition was inactive: 1.23%.

In the case of `CC(C)N(C(=O)Cc1ccccc1[N+](=O)[O-])C(C)C`, the inhibition is inactive: -1.14%.

As for `COc1cc(CNCCc2c[nH]c3ccccc23)cc(Cl)c1OCC(N)=O`, the inhibition is inactive: 17.5%.

Take `FC(F)(F)c1ccc(-c2noc(CN3CCCN(C4CCCCC4)CC3)n2)cc1`: the inhibition is inactive: -1.45%.

On to `COc1ccc(Cl)cc1C(=O)NCCc1ccc(S(=O)(=O)NC(=O)NC2CCCCC2)cc1`, for which the inhibition is inactive: -27.1%.

In the case of `CC(=O)OCC(=O)C1=CCC2C3CCC4=CC(=O)C=CC4(C)C3(F)C(OC(C)=O)CC12C` (stereo not drawn), the inhibition was inactive: 4.74%.

On to `CC#C[C@]1(O)CC[C@H]2[C@@H]3CCC4=CC(=O)CCC4=C3[C@@H](c3ccc(N(C)C)cc3)C[C@@]21C`, for which the inhibition is inactive: 30%.

For `COc1ccc(/C=C2\CCc3ccccc3C2=O)c(OC)c1OC`, the inhibition is inactive: -4.76%.

For `COc1ccc(CCNC(=O)CC(c2ccccc2)c2cccc(C)c2O)cc1OC` (stereo not drawn), the inhibition was inactive: -4.76%.

On to `CCOC(=O)C1=C(N)Oc2c(c(=O)[nH]c3ccccc23)C1c1ccccc1` (stereo not drawn), for which the inhibition was inactive: -0.528%.

`CC1(C)O[C@@H]2C[C@H]3[C@@H]4C[C@H](F)C5=CC(=O)C=C[C@]5(C)[C@@]4(F)[C@@H](O)C[C@]3(C)[C@]2(C(=O)CO)O1`: the inhibition was inactive: -3.92%.

As to `O=C(c1ccc(Cl)cc1)C1CCCN(C(=O)/C=C/c2ccccn2)C1` (stereo not drawn), the inhibition was inactive: 6.47%.

Consider `COc1cc(OC)cc(C(=O)N[C@@H](CCSC)c2nc3ccccc3[nH]2)c1`, for which the inhibition was inactive: -2.08%.

Take `Cc1ccc(C(=O)COC(=O)c2cnccn2)cc1[N+](=O)[O-]`: the inhibition is inactive: 12.6%.

For the molecule `NC12CC3CC(C1)CC(O)(C3)C2`, the inhibition was inactive: 3.29%.

Consider `COc1cc2c(cc1OC)CN(Cc1ccc(C)s1)CC2`, for which the inhibition was inactive: -2.17%.

In the case of `Cc1[nH]c2ccccc2c1C(=O)CN1CCCC1`, the inhibition is inactive: -20.7%.

Turning to `NC[C@H]1O[C@H](O[C@H]2[C@H](O)[C@@H](O[C@H]3O[C@H](CO)[C@@H](O)[C@H](N)[C@H]3O)[C@H](N)C[C@@H]2N)[C@H](N)C[C@@H]1O`, the inhibition was inactive: 0.0915%.

`CC(C)C1Cc2[nH]c(=O)c(C(=O)O)cc2CO1` (stereo not drawn): the inhibition was inactive: -0.098%.

Consider `CC1(C)Cc2nc3sc4c(=O)n(CC(N)=O)cnc4c3cc2CO1`, for which the inhibition is inactive: -0.15%.

As to `Cc1cc(C(C)(C)C)cc(C)c1CC1=NCCN1`, the inhibition was inactive: -10.1%.

In the case of `CCN(CCCCOC(=O)c1ccc(OC)c(OC)c1)C(C)Cc1ccc(OC)cc1` (stereo not drawn), the inhibition is inactive: 4.27%.

Consider `COC(=O)c1cc(COc2ccc3ccc(=O)oc3c2)c(C)o1`, for which the inhibition was inactive: -0.407%.

Turning to `C[C@@H]1C[C@H]2[C@@H]3CCC4=CC(=O)C=C[C@]4(C)[C@@]3(F)[C@@H](O)C[C@]2(C)[C@H]1C(=O)CO`, the inhibition was inactive: 3.64%.

`COc1cc2nc(N3CCN(C(=O)C4COc5ccccc5O4)CC3)nc(N)c2cc1OC` (stereo not drawn): the inhibition was inactive: 44.2%.

On to `Cc1csc(N)n1`, for which the inhibition was inactive: -4.07%.

With `CCCNC(=O)NS(=O)(=O)c1ccc(Cl)cc1`, the inhibition was inactive: 2.05%.

Consider `CC(=O)O[C@]1(C(C)=O)CC[C@H]2[C@@H]3C=C(Cl)C4=CC(=O)CC[C@]4(C)[C@H]3CC[C@@]21C`, for which the inhibition is inactive: -5.12%.

Consider `COc1ccc(O)c(C2=Nc3ccccc3N=C(c3ccccc3)C2)c1`, for which the inhibition was inactive: 0.319%.

Regarding `NC(N)=NC(N)=Nc1ccc2ccccc2c1`, the inhibition is inactive: -2.56%.

Take `Cc1cc(C(=O)NC(CC(C)C)C(=O)O)cc(C)c1[N+](=O)[O-]` (stereo not drawn): the inhibition is inactive: -12.7%.

For the molecule `COc1ccc(C(=O)N2c3cc4c(cc3C(C)=CC2(C)C)OCO4)cc1`, the inhibition is inactive: 3.89%.

Turning to `CC(C)CN(C)Cc1c(C(=O)N2CCc3ccccc3C2)nc2ccc(Cl)cn12`, the inhibition was inactive: -3.09%.

On to `COc1ccc(CCn2c(C)cc3c(c2=O)C(c2ccncc2)C(C#N)=C(N)O3)cc1OC` (stereo not drawn), for which the inhibition is inactive: -0.311%.

On to `CC1(C)C2CCC1(C)C(OCC[N+](C)(C)CC(=O)OC1CCCCC1)C2` (stereo not drawn), for which the inhibition is inactive: 31.8%.

Regarding `Cc1ncc(CN2CCC(CO)(CCc3ccccc3)CC2)s1`, the inhibition was inactive: -2.85%.

For the origin of these results see PubChem BioAssay AID651660 (Broad Institute, 2012).
